The list shows a part of the results. Potency and affinity values are given separately.
Each compound was assayed on Pseudomonas aeruginosa. Conditions: Concentration 32 ug.mL-1; ASSAY_TEST Inhibition of Bacterial Growth; detection method Absorption (OD600); MEDIA CAMHB; plate type 384well; NBS; CORNING #3640; time 18 hr.

Row | Compound | Inhibition
1 | c1ccc2nc3c4cccnc4c4ncccc4c3nc2c1 | 25.83%
2 | COC(=O)c1ccc(S)cc1 | 0.41%
3 | CC(=NN)c1cc(/C(C)=N/N)cc(/C(C)=N/N)c1 | -1.52%
4 | CC(=O)c1cc(C(C)=O)cc(C(C)=O)c1 | 9.23%

Reference: ChEMBL document CHEMBL4513140, “CO-ADD screening of Lancaster University (UK) compounds” (2021)
